{
  "sequences": {"note": "Chains of the proteins cited; added tags and fusions are not shown. Lines headed by an entry give the natural chain unless they say otherwise; changes in a name come on top. A line that says so, or that is headed by a name, gives the form on record, which may keep a tag or linker.", "UniProt P02454": "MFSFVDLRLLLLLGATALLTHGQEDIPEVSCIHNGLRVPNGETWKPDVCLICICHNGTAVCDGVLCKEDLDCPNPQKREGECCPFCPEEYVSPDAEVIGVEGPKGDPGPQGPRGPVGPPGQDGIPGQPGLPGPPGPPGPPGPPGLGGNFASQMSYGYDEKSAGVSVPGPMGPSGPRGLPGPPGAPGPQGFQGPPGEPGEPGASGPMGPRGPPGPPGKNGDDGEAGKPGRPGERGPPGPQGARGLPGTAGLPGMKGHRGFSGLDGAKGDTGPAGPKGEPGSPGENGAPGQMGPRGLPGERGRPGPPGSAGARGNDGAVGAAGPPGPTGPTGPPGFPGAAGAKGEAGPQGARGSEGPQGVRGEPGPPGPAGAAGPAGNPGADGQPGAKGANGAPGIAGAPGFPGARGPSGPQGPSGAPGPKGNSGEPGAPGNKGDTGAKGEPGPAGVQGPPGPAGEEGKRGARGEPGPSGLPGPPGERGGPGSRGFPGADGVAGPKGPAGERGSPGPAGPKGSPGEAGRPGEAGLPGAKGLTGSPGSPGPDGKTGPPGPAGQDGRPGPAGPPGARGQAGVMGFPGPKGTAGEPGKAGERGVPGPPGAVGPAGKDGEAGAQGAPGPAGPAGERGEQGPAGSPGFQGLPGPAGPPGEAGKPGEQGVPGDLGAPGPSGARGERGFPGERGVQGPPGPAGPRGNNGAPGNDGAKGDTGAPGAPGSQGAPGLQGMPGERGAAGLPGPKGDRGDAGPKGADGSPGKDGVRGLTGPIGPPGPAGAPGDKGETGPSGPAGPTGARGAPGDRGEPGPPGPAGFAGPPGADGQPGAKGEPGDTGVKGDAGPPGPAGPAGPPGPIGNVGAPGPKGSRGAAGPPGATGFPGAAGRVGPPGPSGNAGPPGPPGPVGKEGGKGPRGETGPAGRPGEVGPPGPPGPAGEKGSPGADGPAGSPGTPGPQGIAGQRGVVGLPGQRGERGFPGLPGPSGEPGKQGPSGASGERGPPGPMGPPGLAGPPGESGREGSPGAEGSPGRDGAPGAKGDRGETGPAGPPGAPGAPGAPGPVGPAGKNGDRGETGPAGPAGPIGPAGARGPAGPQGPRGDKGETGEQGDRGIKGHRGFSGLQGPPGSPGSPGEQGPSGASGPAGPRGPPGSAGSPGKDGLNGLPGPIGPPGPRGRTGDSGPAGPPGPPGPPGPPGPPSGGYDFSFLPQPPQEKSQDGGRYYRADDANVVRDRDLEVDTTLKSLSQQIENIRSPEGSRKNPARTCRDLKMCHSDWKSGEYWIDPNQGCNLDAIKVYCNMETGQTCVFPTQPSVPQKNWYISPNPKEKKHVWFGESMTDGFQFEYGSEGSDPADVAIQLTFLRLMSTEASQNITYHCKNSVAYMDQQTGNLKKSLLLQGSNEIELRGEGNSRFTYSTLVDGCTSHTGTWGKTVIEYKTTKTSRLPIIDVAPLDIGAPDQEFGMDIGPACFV", "UniProt P02466": "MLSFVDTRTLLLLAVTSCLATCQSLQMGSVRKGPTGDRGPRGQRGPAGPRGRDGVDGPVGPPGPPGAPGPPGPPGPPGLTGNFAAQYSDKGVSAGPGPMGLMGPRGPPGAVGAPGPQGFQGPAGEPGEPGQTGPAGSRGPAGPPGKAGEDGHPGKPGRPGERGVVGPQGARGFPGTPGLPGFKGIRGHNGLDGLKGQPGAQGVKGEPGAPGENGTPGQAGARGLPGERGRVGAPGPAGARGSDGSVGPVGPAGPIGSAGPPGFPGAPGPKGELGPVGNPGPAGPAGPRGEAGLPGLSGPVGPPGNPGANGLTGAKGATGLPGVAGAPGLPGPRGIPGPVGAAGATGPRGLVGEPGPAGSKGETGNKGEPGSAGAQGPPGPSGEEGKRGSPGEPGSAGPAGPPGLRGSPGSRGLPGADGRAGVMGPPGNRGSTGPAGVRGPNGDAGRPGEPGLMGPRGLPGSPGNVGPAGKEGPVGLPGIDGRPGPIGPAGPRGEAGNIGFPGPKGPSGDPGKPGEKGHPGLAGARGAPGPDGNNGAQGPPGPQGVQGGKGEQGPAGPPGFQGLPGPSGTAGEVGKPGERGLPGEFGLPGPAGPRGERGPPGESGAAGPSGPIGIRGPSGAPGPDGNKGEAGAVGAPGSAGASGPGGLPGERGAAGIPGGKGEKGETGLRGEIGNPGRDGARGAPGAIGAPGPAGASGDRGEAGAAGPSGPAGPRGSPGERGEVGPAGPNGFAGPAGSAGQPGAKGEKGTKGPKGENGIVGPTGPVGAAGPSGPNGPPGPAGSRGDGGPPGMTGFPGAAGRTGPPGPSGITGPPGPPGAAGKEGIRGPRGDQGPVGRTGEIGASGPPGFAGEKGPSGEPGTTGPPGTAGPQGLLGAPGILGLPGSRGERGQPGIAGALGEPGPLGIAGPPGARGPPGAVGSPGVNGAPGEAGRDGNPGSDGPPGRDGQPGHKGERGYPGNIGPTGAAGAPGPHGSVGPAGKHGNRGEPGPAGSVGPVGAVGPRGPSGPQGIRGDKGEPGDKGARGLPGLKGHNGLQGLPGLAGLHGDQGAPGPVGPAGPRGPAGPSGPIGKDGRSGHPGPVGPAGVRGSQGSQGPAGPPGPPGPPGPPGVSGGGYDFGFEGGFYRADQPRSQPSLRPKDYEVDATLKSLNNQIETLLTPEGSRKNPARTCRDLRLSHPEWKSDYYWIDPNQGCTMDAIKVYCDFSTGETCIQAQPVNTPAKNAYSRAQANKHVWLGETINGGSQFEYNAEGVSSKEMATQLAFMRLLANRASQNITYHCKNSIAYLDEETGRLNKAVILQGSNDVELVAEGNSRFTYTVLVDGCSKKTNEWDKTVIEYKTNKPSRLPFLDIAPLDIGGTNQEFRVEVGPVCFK", "DDR1-Fc2 (Q08345, form named)": "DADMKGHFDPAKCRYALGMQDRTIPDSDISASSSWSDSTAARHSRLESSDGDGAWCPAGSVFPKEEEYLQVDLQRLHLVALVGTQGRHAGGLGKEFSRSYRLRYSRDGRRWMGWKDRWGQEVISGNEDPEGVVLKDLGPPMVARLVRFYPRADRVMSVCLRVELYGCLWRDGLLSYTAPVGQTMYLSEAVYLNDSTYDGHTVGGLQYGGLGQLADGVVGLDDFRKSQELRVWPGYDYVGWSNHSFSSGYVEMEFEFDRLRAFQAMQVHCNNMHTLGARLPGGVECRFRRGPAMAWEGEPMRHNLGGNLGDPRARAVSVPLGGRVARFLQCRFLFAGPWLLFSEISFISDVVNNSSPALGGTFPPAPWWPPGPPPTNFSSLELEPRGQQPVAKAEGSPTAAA"},
  "source": "paper PMC3034869",
  "biological_target": "collagen I (acid-soluble from rat tail) (rat) (UniProt P02454+P02466)",
  "assay": "ELISA; data not shown; new DDR-Fc proteins on collagens; both purified",
  "note": "These are yes or no findings as the source states them, for the method shown. Some results given as binding are weak or reduced against the parent protein; the word gives no strength.",
  "data": [
    {"substance": "DDR1-Fc2 (from UniProt Q08345 19-416) (Fc fusion)", "values": [
      {"measurement": "binding", "result": "binds"}
    ]}
  ]
}
